The supplement of paper PMC12889115
The list shows a part of the results. These are raw signals, not scaled to a control.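 Primary screen: polymyxin B was added at a level permeabilizing Salmonella outer membranes while sparing inner membranes. DMSO wells, both with and without polymyxin B, established maximum growth. Plate-to-plate variation meant each plate was ranked on its own, and the lowest-OD600 compounds were selected as hits.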

Test system: Salmonella enterica serovar Typhimurium SL1344
Assay: bacterial growth OD600 after 18 h with compound and polymyxin B; higher = more bacterial growth (less inhibition)
Details: 50 µM, Mueller-Hinton broth

CCCN1CCC(N2CCCC(C(=O)Nc3ccc(-c4cccc(OC)c4)cc3)C2)CC1 (stereo not given)
bacterial growth OD600 (polymyxin B 0.75 µg/mL): 0.55

COCCNC1CCCN(c2nc(C)c3cc(F)ccc3n2)CC1 (stereo not given)
bacterial growth OD600 (polymyxin B 0.75 µg/mL): 0.831

CC1CCN(c2ccc(C(=O)N3CCCN(c4ncccn4)CC3)cn2)CC1
bacterial growth OD600 (polymyxin B 0.75 µg/mL): 0.779

Cc1cnccc1CNC(=O)C1(N(C)CCc2ccccc2)Cc2ccccc2C1
bacterial growth OD600 (polymyxin B 0.75 µg/mL): 0

CCCOC1CCCN(c2ccc(C(=O)N(CC)Cc3nccn3C)cn2)C1 (stereo not given)
bacterial growth OD600 (polymyxin B 0.75 µg/mL): 0.801

COc1ccc(CCN2C(=O)O[C@@H]3CN(c4nc(C)cc(C)n4)C[C@@H]32)cc1
bacterial growth OD600 (polymyxin B 0.75 µg/mL): 0.823

O=C(c1ccc(N2CCC(O)CC2)nc1)N1CCCC(c2ccccc2)CC1 (stereo not given)
bacterial growth OD600 (polymyxin B 0.75 µg/mL): 0.743

COc1ccc(CN(C)CC2CCCN(CCc3ccccc3C)C2)cc1OC (stereo not given)
bacterial growth OD600 (polymyxin B 1 µg/mL): 0.732

O=C(Cc1ccsc1)NC1CC(=O)N(CCCc2ccccc2)C1 (stereo not given)
bacterial growth OD600 (polymyxin B 1 µg/mL): 1.07

CCCOC1CCCN(Cc2nc(-c3cccc(Cl)c3)no2)C1 (stereo not given)
bacterial growth OD600 (polymyxin B 1 µg/mL): 0.883

O=C(Nc1cccc(-c2ccc(F)cc2)c1)C1CCCN(C(=O)c2cccnc2)C1 (stereo not given)
bacterial growth OD600 (polymyxin B 1 µg/mL): 0.909

O=C(c1cccs1)N1CCOc2ccc(CN3CCN(c4ccccc4)CC3)cc2C1
bacterial growth OD600 (polymyxin B 0.75 µg/mL): 0.746

O=C(CCc1cn[nH]c1)N1CCC(C2CCN(c3ncccn3)CC2)C1 (stereo not given)
bacterial growth OD600 (polymyxin B 0.75 µg/mL): 0.848

O=C(Cc1ccccc1)Nc1nc2c(s1)C(=O)CC(C(=O)NCC1COc3ccccc3O1)C2 (stereo not given)
bacterial growth OD600 (polymyxin B 0.75 µg/mL): 0.639

COc1ccc(F)c(CC2(CCC(=O)N3CCN(Cc4ncccc4C)CC3)CCC(=O)N2)c1 (stereo not given)
bacterial growth OD600 (polymyxin B 0.75 µg/mL): 0.829

O=C(c1ccc2ncccc2c1)N1CCc2onc(-c3ccccc3)c2C1
bacterial growth OD600 (polymyxin B 1 µg/mL): 0.885

CC(=O)C1CCCN(Cc2cnc(S(=O)(=O)C(C)C)n2CCc2ccccc2)C1 (stereo not given)
bacterial growth OD600 (polymyxin B 1 µg/mL): 1.22

COc1ccccc1N1CCN(c2ncccc2CNC(=O)C2(C(N)=O)CC2)CC1
bacterial growth OD600 (polymyxin B 1 µg/mL): 0.868

COc1ccc(CCc2nnc(CCC(=O)NCC3CC34CCCCC4)o2)cc1 (stereo not given)
bacterial growth OD600 (polymyxin B 1 µg/mL): 1.08

COc1ccc(CNC(=O)CCC2CCCN(Cc3ccc(C)cc3)C2)c(OC)c1 (stereo not given)
bacterial growth OD600 (polymyxin B 0.75 µg/mL): 0.783
